The list shows a part of the results. Single values are uncertain, as repeats are few or missing.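 Imaging used 1,536-well plates; nuclei positive for cleaved PARP by antibody were divided by total DNA-stained nuclei to yield the apoptosis fraction. Doses for screening kept most cells viable, and cell lines differ markedly in resting and induced cleaved-PARP levels.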
Tested on: UACC257
Experiment: cleaved PARP positive nuclei fraction relative to DMSO control; melanoma cells; higher = more apoptosis
Conditions: library dose: low library concentration; 72 h

| Structure (SMILES) | cleaved PARP positive nuclei fraction [%] |
| --- | --- |
| O=C(Nc1cccc(Cl)c1)Nc1ncc(CCNc2ncnc3ccsc23)s1 + CCc1ccc(CCOc2ccc(CC3SC(=O)NC3=O)cc2)nc1 [pioglitazone] (first compound 0.0008 µM, partner dose 2 µM) | 70.3 |
| C[C@]1(c2nc3c(C(N)=O)cccc3[nH]2)CCCN1 [Veliparib] + COc1ccc2c(c1)CCC1C2CCC2(C)C(NCCCCCCN3C(=O)C=CC3=O)CCC12 [U73122] (first compound 1.4 µM, partner dose 0.4 µM) | 94.1 |
| C[C@@H]1CCN(C(=O)CC#N)C[C@@H]1N(C)c1ncnc2[nH]ccc12 + COc1ccc2c(c1)CCC1C2CCC2(C)C(NCCCCCCN3C(=O)C=CC3=O)CCC12 [U73122] (first compound 1 µM, partner dose 0.4 µM) | 73.6 |
| OCCn1cc(-c2cnc3nnn(Cc4ccc5ncccc5c4)c3n2)cn1 + COC(=O)c1sccc1S(=O)(=O)Nc1ccc(Nc2ccccc2)cc1OC [GSK0660] (first compound 1 µM, partner dose 1 µM) | 61.8 |
| O=C(Nc1cccc(Cl)c1)Nc1ncc(CCNc2ncnc3ccsc23)s1 + Oc1nc(-c2ccc(C(F)(F)F)cc2)nc2c1CSCC2 [XAV939] (first compound 0.0008 µM, partner dose 2 µM) | 223 |
| O=C(Nc1cccc(Cl)c1)Nc1ncc(CCNc2ncnc3ccsc23)s1 + COc1cc2ncnc(Nc3ccc(Oc4ccccc4)cc3)c2cc1OC [SrcI1] (first compound 0.0008 µM, partner dose 2 µM) | 45.1 |
| COc1cc(Nc2ncc(F)c(Nc3ccc4c(n3)NC(=O)C(C)(C)O4)n2)cc(OC)c1OC [Tamatinib] + COc1cc(N2CCC(N3CCN(C)CC3)CC2)ccc1Nc1ncc(Cl)c(Nc2ccccc2S(=O)(=O)C(C)C)n1 [NVP-TAE684] (first compound 0.4 µM, partner dose 0.08 µM) | 136 |

Tested on: UACC62
Experiment: as above
Conditions: library dose: low library concentration; 72 h

| Structure (SMILES) | cleaved PARP positive nuclei fraction [%] |
| --- | --- |
| NC(=O)Nc1cc(-c2cccc(F)c2)sc1C(=O)N[C@H]1CCCNC1 + Oc1cc(-c2nc(-c3ccccc3)[nH]c2-c2ccncc2)ccc1Cl [L779450] (first compound 0.02 µM, partner dose 0.2 µM) | 109 |
| C#Cc1cccc(Nc2ncnc3cc(OCCOC)c(OCCOC)cc23)c1 [erlotinib] + c1cc(-c2cnn3cc(-c4ccc(OCCN5CCCCC5)cc4)cnc23)ccn1 [Dorsomorphin] (first compound 0.8 µM, partner dose 0.4 µM) | 183 |
| O=C(CCCCCCC(=O)Nc1ccccc1)NO [vorinostat] + CC(C)CCN1c2nc(Nc3cc(F)c(O)c(F)c3)ncc2N(C)C(=O)C1C [BID1870] (first compound 0.08 µM, partner dose 0.2 µM) | 130 |
| C#Cc1cccc(Nc2ncnc3cc(OCCOC)c(OCCOC)cc23)c1 [erlotinib] + CCCCCCCCCCCC1=C(O)C(=O)C=C(O)C1=O [Embelin] (first compound 0.8 µM, partner dose 1.2 µM) | 34.7 |
| Cn1nnc2c(C(N)=O)ncn2c1=O [temozolomide] + CC(C)CCN1c2nc(Nc3cc(F)c(O)c(F)c3)ncc2N(C)C(=O)C1C [BID1870] (first compound 2 µM, partner dose 0.2 µM) | 46.7 |
| C#Cc1cccc(Nc2ncnc3cc(OCCOC)c(OCCOC)cc23)c1 [erlotinib] + O=C(O)C(=O)Nc1sc2c(c1C(=O)O)CCNC2 [TCS401] (first compound 0.8 µM, partner dose 1.66667 µM) | 55.2 |
| Cn1c(Nc2ccc(C(F)(F)F)cc2)nc2cc(Oc3ccnc(-c4ncc(C(F)(F)F)[nH]4)c3)ccc21 + CCc1ccc(CCOc2ccc(CC3SC(=O)NC3=O)cc2)nc1 [pioglitazone] (first compound 0.08 µM, partner dose 2 µM) | 154 |
| OCCn1cc(-c2cnc3nnn(Cc4ccc5ncccc5c4)c3n2)cn1 + N#Cc1c(O)c2c(-c3ccc(-c4ccccc4O)cc3)csc2[nH]c1=O [A769662] (first compound 1 µM, partner dose 2 µM) | 156 |
| C=CCn1c(=O)c2cnc(Nc3ccc(N4CCN(C)CC4)cc3)nc2n1-c1cccc(C(C)(C)O)n1 + O=C(O)C(=O)Nc1sc2c(c1C(=O)O)CCNC2 [TCS401] (first compound 0.02 µM, partner dose 1.66667 µM) | 255 |
| Cn1nnc2c(C(N)=O)ncn2c1=O [temozolomide] + COC(=O)c1sccc1S(=O)(=O)Nc1ccc(Nc2ccccc2)cc1OC [GSK0660] (first compound 2 µM, partner dose 1 µM) | 45.5 |
| C[C@@H]1CCN(C(=O)CC#N)C[C@@H]1N(C)c1ncnc2[nH]ccc12 + Oc1nc(-c2ccc(C(F)(F)F)cc2)nc2c1CSCC2 [XAV939] (first compound 1 µM, partner dose 2 µM) | 61 |
| COCC[n+]1c2c(n(Cc3cnccn3)c1C)C(=O)c1ccccc1C2=O + O=C(O)C(=O)Nc1sc2c(c1C(=O)O)CCNC2 [TCS401] (first compound 0.0004 µM, partner dose 1.66667 µM) | 156 |
| O=C(CCCCCCC(=O)Nc1ccccc1)NO [vorinostat] + Oc1nc(-c2ccc(C(F)(F)F)cc2)nc2c1CSCC2 [XAV939] (first compound 0.08 µM, partner dose 2 µM) | 37.9 |
| COc1cc(Nc2ncc(F)c(Nc3ccc4c(n3)NC(=O)C(C)(C)O4)n2)cc(OC)c1OC [Tamatinib] + COc1ccc(COc2ccc(Cc3cnc(N)nc3N)cc2OC)cc1 [GW2580] (first compound 0.4 µM, partner dose 1 µM) | 40 |
| Cc1nc(Nc2ncc(C(=O)Nc3c(C)cccc3Cl)s2)cc(N2CCN(CCO)CC2)n1 [dasatanib] + CCc1ccc(CCOc2ccc(CC3SC(=O)NC3=O)cc2)nc1 [pioglitazone] (first compound 0.004 µM, partner dose 2 µM) | 48.2 |
| Cc1cc(N2CCOCC2)cc2[nH]c(-c3c(NC[C@@H](O)c4cccc(Cl)c4)cc[nH]c3=O)nc12 + Cn1cc(/C=C2\C(=O)Nc3cccnc32)c2ccccc21 [GW441756] (first compound 0.2 µM, partner dose 0.4 µM) | 39.6 |
| O=C(CCCCCCC(=O)Nc1ccccc1)NO [vorinostat] + O=C(O)C(=O)Nc1sc2c(c1C(=O)O)CCNC2 [TCS401] (first compound 0.08 µM, partner dose 1.66667 µM) | 257 |
| OCCn1cc(-c2cnc3nnn(Cc4ccc5ncccc5c4)c3n2)cn1 + c1cc(-c2cnn3cc(-c4ccc(OCCN5CCCCC5)cc4)cnc23)ccn1 [Dorsomorphin] (first compound 1 µM, partner dose 0.4 µM) | 72.4 |
| CC1(C)NC(=O)N(c2ccc([N+](=O)[O-])c(C(F)(F)F)c2)C1=O [nilutamide] + CCCCCCCCCCCC1=C(O)C(=O)C=C(O)C1=O [Embelin] (first compound 1 µM, partner dose 1.2 µM) | 65.3 |
| Cn1nnc2c(C(N)=O)ncn2c1=O [temozolomide] + COc1ccc2c(c1)CCC1C2CCC2(C)C(NCCCCCCN3C(=O)C=CC3=O)CCC12 [U73122] (first compound 2 µM, partner dose 0.4 µM) | 93.5 |
| Cn1nnc2c(C(N)=O)ncn2c1=O [temozolomide] + O=S(=O)(c1ccccc1)N(CC(F)(F)F)c1ccc(C(O)(C(F)(F)F)C(F)(F)F)cc1 [T0901317] (first compound 2 µM, partner dose 1.4 µM) | 92 |
| O=C(CCCCCCC(=O)Nc1ccccc1)NO [vorinostat] + O=c1cc(-c2cccc3c2Sc2ccccc2S3)oc(N2CCOCC2)c1 [KU55933] (first compound 0.08 µM, partner dose 1 µM) | 38.7 |
| C[C@@H]1CCN(C(=O)CC#N)C[C@@H]1N(C)c1ncnc2[nH]ccc12 + CC(C)CCN1c2nc(Nc3cc(F)c(O)c(F)c3)ncc2N(C)C(=O)C1C [BID1870] (first compound 1 µM, partner dose 0.2 µM) | 87.3 |
| Cn1nnc2c(C(N)=O)ncn2c1=O [temozolomide] + COc1ccc(-c2ccc3c(N4CCOCC4)nc(N4C[C@@H](C)O[C@@H](C)C4)nc3n2)cc1CO [KU0063794] (first compound 2 µM, partner dose 0.02 µM) | 142 |
| Nc1cccc2c1CN(C1CCC(=O)NC1=O)C2=O (stereo not given) [lenalidomide] + CCN(CC)CCCCNc1ncc2cc(-c3cc(OC)cc(OC)c3)c(NC(=O)NC(C)(C)C)nc2n1 [PD173074] (first compound 1 µM, partner dose 0.1 µM) | 35.4 |
| Cc1nc(Nc2ncc(C(=O)Nc3c(C)cccc3Cl)s2)cc(N2CCN(CCO)CC2)n1 [dasatanib] + CCCCCCCCCCCC1=C(O)C(=O)C=C(O)C1=O [Embelin] (first compound 0.004 µM, partner dose 1.2 µM) | 38.1 |
| O=C(Nc1cccc(Cl)c1)Nc1ncc(CCNc2ncnc3ccsc23)s1 + Cn1cc(/C=C2\C(=O)Nc3cccnc32)c2ccccc21 [GW441756] (first compound 0.0008 µM, partner dose 0.4 µM) | 28.9 |
| Nc1cccc2c1CN(C1CCC(=O)NC1=O)C2=O (stereo not given) [lenalidomide] + COc1ccc(COc2ccc(Cc3cnc(N)nc3N)cc2OC)cc1 [GW2580] (first compound 1 µM, partner dose 1 µM) | 186 |

Looked up one by one from the entries so far:

| Structure (SMILES) | cleaved PARP positive nuclei fraction [%] |
| --- | --- |
| Cn1nnc2c(C(N)=O)ncn2c1=O [temozolomide] + COc1ccc(-c2ccc3c(N4CCOCC4)nc(N4C[C@@H](C)O[C@@H](C)C4)nc3n2)cc1CO [KU0063794] (first compound 2 µM, partner dose 0.02 µM) | 142 |
| Cn1nnc2c(C(N)=O)ncn2c1=O [temozolomide] + COc1ccc2c(c1)CCC1C2CCC2(C)C(NCCCCCCN3C(=O)C=CC3=O)CCC12 [U73122] (first compound 2 µM, partner dose 0.4 µM) | 93.5 |

From the supplement of paper PMC4604168 (melanoma cell lines)
